Assay results reported in paper PMC12208539.
No constants are given. Whether binding was seen depends on the method and setting. Binding seen in cells or lysates may run through a third protein. Some entries that bind do so weakly or less than the wild type. For some assays here: Sequences can lack the tags named with a protein.

Experiments:
[1] = target: T1, Flag-PLEK2 (UniProt Q9NYT0); test: co-IP; anti-Flag magnet beads with 1 mg lysate of transfected HEK293T cells, 4°C overnight; IP buffer 50 mM Tris-HCl pH 8.0, 150 mM NaCl, 1% Triton X-100; Western blotting
T1 sequence: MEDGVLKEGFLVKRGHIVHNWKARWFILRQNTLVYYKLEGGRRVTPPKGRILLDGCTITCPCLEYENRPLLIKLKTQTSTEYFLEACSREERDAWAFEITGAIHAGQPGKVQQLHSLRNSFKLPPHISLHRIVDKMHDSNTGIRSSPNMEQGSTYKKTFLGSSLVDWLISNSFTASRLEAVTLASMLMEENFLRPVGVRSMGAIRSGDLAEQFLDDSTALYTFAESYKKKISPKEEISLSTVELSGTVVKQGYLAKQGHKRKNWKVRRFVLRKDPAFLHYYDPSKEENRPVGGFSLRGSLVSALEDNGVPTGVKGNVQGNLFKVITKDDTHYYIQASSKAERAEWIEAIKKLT

[2] = target: T2, Ppil2, endogenous in mouse erythroid cells (mouse (endogenous in bone marrow Ter119+ cells)) (UniProt Q9D787); test: co-IP; endogenous IP: PPIL2 antibody or IgG with 1 mg lysate of mouse bone marrow Ter119+ cells, 4°C overnight, protein A/G beads; Western blotting
T2 sequence: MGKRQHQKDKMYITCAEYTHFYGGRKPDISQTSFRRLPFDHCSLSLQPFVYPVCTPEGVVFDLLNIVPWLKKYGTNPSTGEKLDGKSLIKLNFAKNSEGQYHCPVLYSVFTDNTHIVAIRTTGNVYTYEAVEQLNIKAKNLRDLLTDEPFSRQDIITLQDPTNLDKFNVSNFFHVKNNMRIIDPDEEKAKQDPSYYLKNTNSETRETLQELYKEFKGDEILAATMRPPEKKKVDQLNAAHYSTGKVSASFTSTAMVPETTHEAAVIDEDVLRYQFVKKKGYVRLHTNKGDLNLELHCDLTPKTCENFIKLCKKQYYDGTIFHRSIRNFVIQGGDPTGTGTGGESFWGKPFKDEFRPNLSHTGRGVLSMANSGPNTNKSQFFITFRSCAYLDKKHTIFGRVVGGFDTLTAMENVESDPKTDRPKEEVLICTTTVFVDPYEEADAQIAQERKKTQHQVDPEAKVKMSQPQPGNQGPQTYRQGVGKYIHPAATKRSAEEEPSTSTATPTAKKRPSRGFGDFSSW

Binder | binding [1] | binding [2]
PPIL2 (peptidylprolyl isomerase-like 2) in HEK293T lysate (protein, UniProt Q13356 1-520) MGKRQHQKDKMYITCAEYTHFYGGKKPDLPQTNFRRLPFDHCSLSLQPFVYPVCTPDGIVFDLLNIVPWLKKYGTNPSNGEKLDGRSLIKLNFSKNSEGKYHCPVLFTVFTNNTHIVAVRTTGNVYAYEAVEQLNIKAKNFRDLLTDEPFSRQDIITLQDPTNLDKFNVSNFYHVKNNMKIIDPDEEKAKQDPSYYLKNTNAETRETLQELYKEFKGDEILAATMKAPEKKKVDKLNAAHYSTGKVSASFTSTAMVPETTHEAAAIDEDVLRYQFVKKKGYVRLHTNKGDLNLELHCDLTPKTCENFIRLCKKHYYDGTIFHRSIRNFVIQGGDPTGTGTGGESYWGKPFKDEFRPNLSHTGRGILSMANSGPNSNRSQFFITFRSCAYLDKKHTIFGRVVGGFDVLTAMENVESDPKTDRPKEEIRIDATTVFVDPYEEADAQIAQERKTQLKVAPETKVKSSQPQAGSQGPQTFRQGVGKYINPAATKRAAEEEPSTSATVPMSKKKPSRGFGDFSSW | binds | –
Plek2, endogenous in mouse erythroid cells (protein, UniProt Q9WV52 1-353) MEDGVLKEGFLVKRGHIVHNWKARWFILRQNTLLYYKLEGGRRVTPPKGRIVLDGCTITCPCLEYENRPLLIKLKTRTSTEYFLEACSREERDSWAFEITGAIHAGQPGKIQQLHILKNSFKLPPHISLHRIVDKMHDTSTGIRPSPNMEQGSTYKKTFLGSSLVDWLISSNFAASRLEAVTLASMLMEENFLRPVGVRSMGAIRSGDLAEQFLDDSTALYTFAESYKKKVSSKEEISLSTMELSGTVVKQGYLSKQGHKRKNWKVRRFVLRKDPAFLHYYDPSKEENRPVGGFSLRGSLVSALEDNGVPTGVKGNVQGNLFKVITKDDTHYYIQASSKAERAEWIEAIKKLT | – | binds
